{"source": "PubChem BioAssay AID624297", "about": "(National Center for Advancing Translational Sciences (NCATS), 2012)", "note": "About 6,200 (1.8%) of roughly 340,000 compounds were called active. Inconclusive results, whose numbers are uncertain, are shown with a selection of clear calls. Calls come from the whole dose curve; as a rule, active = well fitted activation curve with a large enough effect; inconclusive = small, poorly fitted or top-dose-only effect; inactive = no such curve, though single readings can be large or run the other way. Potencies beside an inconclusive call are fits to weak or partial responses and may not hold up. Potency is the fitted concentration of half-maximal effect.", "data": [{"assay": "A quantitative high throughput screen for small molecules that induce DNA re-replication in SW480 colon adenocarcinoma cells; note: nearly all actives have a fitted effect of over 55% in size; for re-replication activation: % of control where 0% means no effect.", "conditions": "Hoechst DNA content imaging, 48 h; re-replication activation: at 46.1 µM (top of the series) unless noted", "summary_of_the_method": "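Image-based DNA-content assay: after two days of treatment, nuclei were labelled with the DNA dye Hoechst and imaged, and hits were compounds raising the count of nuclei showing high fluorescence intensity.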", "values": [{"molecule": "C=CCn1cc(C(=O)N2CCN(c3ccccc3)CC2)c(=O)c2cc(S(=O)(=O)N3CCCC3)ccc21", "re-replication activation": "inactive: -12%"}, {"molecule": "CC(N=Cc1c(O)c2ccccc2oc1=O)C(=O)O", "note": "(centres undefined)", "Potency": "inconclusive: 18.4 µM [activator, partial curve, poor fit]"}, {"molecule": "CC1CC(C)CN(CCC(=O)Nc2ccc(Br)cc2)C1", "note": "(centres undefined)", "re-replication activation": "inactive: -0.512%"}, {"molecule": "CCCOC(=O)c1c(NC(=O)CCC(=O)O)sc2c1CCCCC2", "re-replication activation": "inactive: -15.9%"}, {"molecule": "Cc1ccc(/C=C/C(=O)OCC(=O)c2ccc3c(c2)NC(=O)CO3)o1", "re-replication activation": "inactive: -3.81%"}, {"molecule": "O=C(Nc1cc(Cl)cc(Cl)c1)N1CCN(C(=O)C2CCCO2)CC1", "note": "(centres undefined)", "Potency": "inconclusive: 25.9 µM [activator, single point]"}, {"molecule": "CN(C)CCC(=O)N1c2ccccc2Sc2ccc(Cl)cc21", "Potency": "inconclusive: 18.4 µM [activator, single point]"}, {"molecule": "COc1ccc(C2CC(c3cccc(Cl)c3)=NN2c2ccc(S(N)(=O)=O)cc2)cc1", "note": "(centres undefined)", "Potency": "active: 2.06 µM"}, {"molecule": "Fc1ccccc1CSc1nnc2ccc(-c3ccncc3)nn12", "Potency": "inconclusive: 7.31 µM [activator, partial curve, poor fit]"}, {"molecule": "CCCCCCc1cc2cc(-c3nnc(-c4ccccc4)o3)c(=O)oc2cc1O", "Potency": "active: 3.55 µM"}, {"molecule": "COc1ccc(NC(=O)COc2ccc(-c3ccccc3)cc2)cc1", "Potency": "inconclusive: 29.1 µM [activator, single point]"}, {"molecule": "C=C(C)COc1ccc(-c2[nH]ncc2-c2ccc(OC)c(OC)c2)c(O)c1", "Potency": "active: 2.91 µM"}, {"molecule": "O=C(/C=C/c1ccco1)Nc1ccccn1", "Potency": "active: 5.17 µM"}, {"molecule": "O=C(NCc1ccco1)c1cccc(S(=O)(=O)N2CCN(Cc3ccccc3)CC2)c1", "Potency": "inconclusive: 0.231 µM [activator, full curve, poor fit]"}, {"molecule": "Cc1ccc2nc(N/N=C\\c3ccc([N+](=O)[O-])o3)nc(-c3ccccc3)c2c1", "Potency": "inconclusive: 23.1 µM [activator, partial curve, poor fit]"}, {"molecule": "CCOc1ccccc1N(CC(=O)Nc1ccccc1F)S(=O)(=O)c1ccccc1", "Potency": "inconclusive: 0.82 µM [activator, full curve, poor fit]"}, {"molecule": "N=c1n(CCO)c2ccccc2n1CCOc1ccccc1", "re-replication activation": "inactive: -0.922%"}, {"molecule": "CCCOC(=O)C1=C(C)NC2=C(C(=O)CC(C)(C)C2)C1c1cccnc1", "note": "(centres undefined)", "Potency": "inconclusive: 14.6 µM [activator, partial curve, poor fit]"}, {"molecule": "CNc1nnc(-c2ccc(C)cc2)c2ccccc12", "Potency": "inconclusive: 29.1 µM [activator, single point]"}, {"molecule": "COCCOC(=O)C1=C(C)NC2=C(C(=O)CC(C)(C)C2)C1c1cc2c(cc1Br)OCO2", "note": "(centres undefined)", "re-replication activation": "inactive: 1.59%"}, {"molecule": "COc1ccc(-c2noc3c2-c2nc(-c4ccccc4C)sc2CC3)cc1", "Potency": "active: 20.6 µM"}, {"molecule": "O=C(Nc1cccc(C(F)(F)F)c1)c1ccc2nc(-c3ccco3)c(-c3ccco3)nc2c1", "Potency": "inconclusive: 25.9 µM [activator, single point]"}, {"molecule": "CC(CSc1n[nH]c(=S)s1)c1ccccc1", "note": "(centres undefined)", "re-replication activation": "inactive: 1.55%"}, {"molecule": "CN(C)C(CNC(=O)c1ccc(NS(=O)(=O)c2ccc(F)cc2)cc1)c1ccco1", "note": "(centres undefined)", "Potency": "inconclusive: 29.1 µM [activator, single point]"}, {"molecule": "COc1cc2ccccc2cc1C(=O)Nc1ccc(N2CCN(C)CC2)cc1", "Potency": "inconclusive: 29.1 µM [activator, single point]"}, {"molecule": "COc1ccc(S(=O)(=O)N2CCN(CCC(=O)Nc3ccc(F)cc3)CC2)cc1", "Potency": "inconclusive: 4.61 µM [activator, full curve, poor fit]"}, {"molecule": "C/C(=N\\NC(=O)CNc1cccc(Cl)c1C)c1cccs1", "Potency": "active: 18.4 µM"}, {"molecule": "O=C(Nc1nc(-c2ccncc2)cs1)C1COc2ccccc2O1", "note": "(centres undefined)", "Potency": "inconclusive: 29.1 µM [activator, single point]"}, {"molecule": "O=S(=O)(c1ccc(NC(=S)Nc2ccccc2)cc1)N1CCOCC1", "re-replication activation": "inactive: -2.45%"}, {"molecule": "CCc1ccc(N(CC(=O)Nc2nc3ccc(C)cc3s2)S(=O)(=O)c2c(C)noc2C)cc1", "Potency": "inconclusive: 29.1 µM [activator, single point]"}, {"molecule": "CC[C@H](C)[C@@H](C(=O)NCCCCCCCCCCC(=O)N1CCN(C(=O)OC(C)(C)C)CC1)n1cc(CCCCCNC(=O)OC(C)(C)C)nn1", "Potency": "inconclusive: 0.92 µM [activator, full curve, poor fit]"}, {"molecule": "O=C(O)c1cc(O)ccc1N=Nc1ccccc1", "Potency": "inconclusive: 29.1 µM [activator, single point]"}, {"molecule": "O=C(NCc1ccccc1)C1=C[C@@H](c2ccc(C(F)(F)F)cc2)C[C@@H](OCc2ccc(CO)cc2)O1", "Potency": "inconclusive: 6.51 µM [activator, single point]"}, {"molecule": "CN1CCC(NC(=O)c2cc(-c3cccc(Br)c3)nc3ccccc23)CC1", "Potency": "inconclusive: 25.9 µM [activator, single point]"}, {"molecule": "CCC(NC(=O)CCCc1ccccc1)c1ccccc1", "note": "(centres undefined)", "re-replication activation": "inactive: -52.1%"}, {"molecule": "COc1nc(N2CCOCC2)nc(C)c1[N+](=O)[O-]", "re-replication activation": "inactive: -0.086%"}, {"molecule": "CCCCCCCNC(=O)C1(CC2CC(c3cccc(Br)c3)=NO2)CCN(C(=O)C2CCCC2)CC1", "note": "(centres undefined)", "re-replication activation": "inactive: 4.15%"}, {"molecule": "O=C(Nc1ccc(N2CCN(C(=O)c3ccc(Cl)cc3)CC2)cc1)c1ccc([N+](=O)[O-])o1", "Potency": "inconclusive: 6.51 µM [activator, single point]"}, {"molecule": "Cc1ccc(C)c(NC(=O)CCN2CCCCC2)c1", "Potency": "inconclusive: 16.4 µM [activator, partial curve, poor fit]"}, {"molecule": "O=C(Nc1ccc(Cl)cc1Cl)c1ccc2ncsc2c1", "Potency": "inconclusive: 0.731 µM [activator, full curve, poor fit]"}, {"molecule": "Clc1ccccc1CSc1ncccn1", "Potency": "inconclusive: 25.9 µM [activator, single point]"}, {"molecule": "S=C(N/N=C/c1ccccc1)N1CCOCC1", "Potency": "inconclusive: 0.82 µM [activator, full curve, poor fit]"}, {"molecule": "CCN1CCN(c2ccc(S(=O)(=O)N3CCCCC3)cc2NC(=O)CC(NC(C)=O)c2ccccc2)CC1", "note": "(centres undefined)", "re-replication activation": "inactive: -1.64%"}, {"molecule": "COc1ccc(-n2nc3c(N4CCC(C(=O)NCCc5ccccc5C)CC4)nnc(C)c3c2C)cc1", "Potency": "inconclusive: 5.62 µM [activator, single point]"}]}]}
